Reference: US20230303685A1
Results are given in words; binding and its absence hold for the method and conditions named. Some results given as binding are weak or reduced against the parent protein; the word gives no strength.

Legend:
[1] = target: cynomolgus monkey SIRPα extracellular domain, monomeric (cynomolgus monkey); assay: ELISA, extracellular domain coated at 2 µg/mL, purified antibody titrated, anti-rat or anti-mouse IgG, chemiluminescence
[2] = target: cynomolgus monkey SIRPα extracellular domain, monomeric (cynomolgus monkey); assay: ELISA, extracellular domain coated at 1 µg/mL, hybridoma supernatant diluted 1:5, anti-rat or anti-mouse IgG, chemiluminescence
[3] = target: cynomolgus monkey SIRPα extracellular domain, monomeric (cynomolgus monkey); assay: ELISA, extracellular domain coated at 1 µg/mL, purified antibody titrated, anti-rat IgG, chemiluminescence
[4] = target: cynomolgus monkey SIRPα extracellular domain, monomeric (cynomolgus monkey); assay: ELISA, extracellular domain coated at 1 µg/mL, purified antibody titrated, anti-human IgG, chemiluminescence
[5] = target: cynomolgus monkey SIRPα extracellular domain, monomeric (cynomolgus monkey); assay: ELISA, extracellular domain coated at 2 µg/mL, purified antibody titrated, anti-human IgG, chemiluminescence

B1: Antibody 8 (antibody, V domains shown)
VH: QVQLQQWGAGLLKPSETLSLTCAVYGGSFSGYYWSWIRQPPGKGLEWIGEINHSGSTNFNPSLKSRVTISVDTSKNQFSLKLRSVTAADTAVYYCSRVDSGSYPYYDGLDVWGQGTTVTVSS
VL: SSELTQPPSVSVSPGQTASITCSGDKLGDKYVYWYQQKPGQSPVLVIYHDDRRPAGIPERFAGSASGNTATLTISGTQAMDEADYYCQTWDSSTVVFGGGTKLTVL
B1 was tested, and the binding [1] was “binds” and the binding [2] was “binds”.

B2: Antibody 10 (antibody, V domains shown)
VH: EVQLLESGGGLVQPGGSLRLSCAASGFTFSSYAMSWVRQAPGKGLEWVSAISGSGGDTYYADSVKGRFTISRDNSKSTLYLQMNSLRAEDTAVYYCAKDGGSYYPPFDYWGQGTLVTVSS
VL: SYELTQPPSVSVSPGQTASITCSGDKLGDRYACWYQQKPGQSPVLVIYQDTKRPSGIPERFSGSNSGNTATLTISGTQAMDEADYYCQACDSSTAVFGGGTKLTVL
B2 was tested, and the binding [1] was “binds” and the binding [2] was “binds”.

B3: Antibody 11 (antibody, V domains shown)
VH: EVQLVESGGGLVQPGGSLRLSCAASGFTFSSYWMHWVRQAPGKGLVWVSRIHNDGSRTSYADSVKGRFTISRDNAKNTLYLQMSSLRAEDTAVYYCTRDPPPYDILTGYPFDYWGQGTLVTVSS
VL: DIQMTQSPSSVSASVGDRVTITCRASQDISSWLAWFQQKPGKAPKLLIYGASSLQSGVPSRFSGSGSGTDFTLTISSLQPEDFATYYCQEANSFPYTFGQGTKLEIK
With B3 the binding [3] was “binds”, the binding [1] was “binds” and the binding [2] was “binds”.

B4: Antibody 15 (antibody, V domains shown)
VH: QIQLVQSGPELKKPGETVKISCKGSGYTFRNFGMNWVKQAPGMGLKWMVWIDTNTGEPTYAEEFKGRFAFSLETSASTAYLQINNLKNEDTATYFCARSRGNYFAMEYWGQGTSVTVSS
VL: DIKMTQSPSSMYASLGERVTVTCKASQDINRYLSWFQQKPGKSPKTLIYRANRLVDGVPSRFSGSGSGQDYSLTISSLEYEDMGFYYCLQYDEFPFTFGSGTKLEIK
In the case of B4, the binding [1] is reported as “binds” and the binding [2] is reported as “binds”.

B5: Antibody 23 (antibody, V domains shown)
VH: QVQLQESGPGLVKPSGTLSLTCAVSGGSISSSNWWSWVRQPPGKGLEWIGEIYHSGSTNYNPSLKSRVTISVDKSKNQFSLKLSSVTAADTAVYYCARRGIWFGVGPWGQGTLVTVSS
VL: DIVMTQSPLSLPVTPGEPASISCRSSQSLLHGNGFNYLDWYLQKPGQSPQLLIYLGSNRASGVPDRFTGSGSGTDFTLKISRVEAEDVGVYYCMQGLQTPRTFGQGTKVEIK
B5 was tested, and the binding [4] was “binds”.

B6: Antibody 28 (antibody, V domains shown)
VH: QVQLQESGPGLVKPSGTLSLTCAVSGGSISSSNWWSWVRQPPGKGLEWIGEIYHSGSTNYNPSLKSRVTISVDKSKNQFSLKLSSVTAADTAVYYCARRGIWFGVGPWGQGTLVTVSS
VL: DIVMTQSPLSLPVTPGEPASISCRSSQSLLHGNGFNYLDWYLQKPGQSPQLLIYLGSNRASGVPDRFTGSGSGTDFTLKISRVEAEDVGVYYCMQGLQTPRTFGQGTKVEIK
For B6, the binding [4] was “binds” and the binding [5] was “binds”.

B7: Antibody 1 (antibody, V domains shown)
VH: QVQLQESGPGLVKPSGTLSLTCAVSGGSISSSNWWSWVRQPPGKGLEWIGEIYHSGSTNYNPSLKSRVTISVDKSKNQFSLKLSSVTAADTAVYYCARRGIWFGVGPWGQGTLVTVSS
VL: DIVMTQSPLSLPVTPGEPASISCRSSQSLLHGNGFNYLDWYLQKPGQSPQLLIYLGSNRASGVPDRFTGSGSGTDFTLKISRVEAEDVGVYYCMQGLQTPRTFGQGTKVEIK
In the case of B7, the binding [3] is reported as “binds”, the binding [1] is reported as “binds” and the binding [2] is reported as “binds”.
